Among the data in publication PMC5593949 are binding values, retold here.

Protein sequences, listed by entry. Tags and fused reporters are not part of them.
UniProt Q5AMH6: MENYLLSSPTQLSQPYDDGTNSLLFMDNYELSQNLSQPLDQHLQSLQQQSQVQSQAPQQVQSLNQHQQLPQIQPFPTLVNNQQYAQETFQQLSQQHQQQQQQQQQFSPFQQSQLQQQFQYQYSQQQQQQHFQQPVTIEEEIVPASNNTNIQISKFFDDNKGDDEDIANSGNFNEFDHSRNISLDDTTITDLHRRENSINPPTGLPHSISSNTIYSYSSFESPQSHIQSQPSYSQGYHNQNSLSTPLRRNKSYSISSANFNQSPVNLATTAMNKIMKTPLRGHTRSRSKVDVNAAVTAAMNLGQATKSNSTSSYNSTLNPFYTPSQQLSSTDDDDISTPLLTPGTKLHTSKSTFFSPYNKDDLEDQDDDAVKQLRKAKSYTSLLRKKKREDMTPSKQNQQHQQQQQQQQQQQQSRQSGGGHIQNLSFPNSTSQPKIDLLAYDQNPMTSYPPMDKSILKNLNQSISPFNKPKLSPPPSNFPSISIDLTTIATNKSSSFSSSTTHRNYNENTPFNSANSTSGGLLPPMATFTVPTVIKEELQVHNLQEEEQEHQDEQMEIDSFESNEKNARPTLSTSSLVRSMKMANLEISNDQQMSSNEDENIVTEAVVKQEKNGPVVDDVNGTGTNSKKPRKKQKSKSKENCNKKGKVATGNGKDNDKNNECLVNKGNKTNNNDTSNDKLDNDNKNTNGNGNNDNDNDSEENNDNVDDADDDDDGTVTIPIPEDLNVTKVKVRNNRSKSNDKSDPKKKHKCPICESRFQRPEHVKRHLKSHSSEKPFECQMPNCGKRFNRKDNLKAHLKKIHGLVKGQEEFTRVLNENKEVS
UniProt A0A1D8PCM9: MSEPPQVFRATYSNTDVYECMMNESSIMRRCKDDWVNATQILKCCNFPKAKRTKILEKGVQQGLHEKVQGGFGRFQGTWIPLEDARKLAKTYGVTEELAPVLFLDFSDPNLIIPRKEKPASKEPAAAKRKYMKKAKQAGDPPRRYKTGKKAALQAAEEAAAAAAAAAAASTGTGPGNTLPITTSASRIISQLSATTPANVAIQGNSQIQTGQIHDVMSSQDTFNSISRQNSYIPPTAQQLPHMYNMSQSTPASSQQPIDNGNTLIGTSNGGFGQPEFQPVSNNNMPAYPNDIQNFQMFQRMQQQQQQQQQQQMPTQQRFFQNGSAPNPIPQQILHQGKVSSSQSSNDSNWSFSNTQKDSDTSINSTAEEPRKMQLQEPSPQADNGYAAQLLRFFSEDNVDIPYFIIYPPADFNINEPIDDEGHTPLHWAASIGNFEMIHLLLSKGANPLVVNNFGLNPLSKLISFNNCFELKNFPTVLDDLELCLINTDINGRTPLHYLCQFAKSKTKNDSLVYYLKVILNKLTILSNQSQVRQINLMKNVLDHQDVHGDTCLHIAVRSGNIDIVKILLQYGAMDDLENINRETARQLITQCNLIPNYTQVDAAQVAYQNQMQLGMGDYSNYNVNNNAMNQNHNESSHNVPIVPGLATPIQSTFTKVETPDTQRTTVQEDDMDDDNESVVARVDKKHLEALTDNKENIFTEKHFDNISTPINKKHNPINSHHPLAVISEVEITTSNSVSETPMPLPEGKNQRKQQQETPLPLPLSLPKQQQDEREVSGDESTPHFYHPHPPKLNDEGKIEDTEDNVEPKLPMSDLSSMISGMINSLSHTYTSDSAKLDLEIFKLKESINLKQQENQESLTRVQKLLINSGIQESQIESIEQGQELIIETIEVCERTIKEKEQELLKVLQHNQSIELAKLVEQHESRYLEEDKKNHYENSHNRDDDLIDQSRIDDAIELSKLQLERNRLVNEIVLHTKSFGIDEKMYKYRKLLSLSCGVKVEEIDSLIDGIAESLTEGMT

These are yes or no findings as the source states them, for the method shown. In cells and extracts the contact can be indirect. Some results given as binding are weak or reduced against the parent protein; the word gives no strength.

The target in the assay is Cas5-HA (C terminally HA-tagged Cas5) (C. albicans) (UniProt Q5AMH6). Put plainly: co-IP; Cas5-HA immunoprecipitated with anti-HA agarose (Pierce HA-Tag IP/Co-IP kit) from C. albicans lysate; lysis buffer 20 mM Tris pH 7.5, 100 mM KCl, 5 mM MgCl, 20% glycerol; western blot with anti-TAP antibody. Background: A western blot detects proteins with antibodies after separation by electrophoresis.

With “Swi4-TAP (from UniProt A0A1D8PCM9 1-1019)”, the binding entry is “binds”.
In the case of “Swi6-TAP (from UniProt A0A1D8PED2 1-729)” it was “binds”.
